Data as given in the supplement of paper PMC10338343.
± gives the standard deviation. This is a selection; strong and weak results do not stand in their true shares. The uncertainty is large for many entries.

tested on: MIWI (PIWIL1) piRISC loaded with piRNA #2 (30 nt); assay: pre-steady-state target cleavage rate (min^-1); MIWI and MILI are mouse PIWI proteins and EfPiwi is from a freshwater sponge; tags in brackets are library labels; higher = faster piRNA-guided slicing of the target; settings: guide: piRNA #2 5'p-UUAGGUAACCCAGUAGAUCCAGAGGAAUUC; auxiliary factor: 500 nM mouse GTSF1
Procedure, shortened: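 The pre-steady-state cleavage rate was derived from a burst-and-steady-state fit of Cleave-'n-Seq data. For these assays, 1 nM active affinity-purified piRISC loaded with a single synthetic guide was mixed with […] a transcribed, DNA-blocked target RNA library in HEPES–potassium acetate buffer at 33 °C, with or without 500 nM GTSF1 partner protein, for 0–8 or 0–960 min. Sequencing counts of uncleaved targets were normalised to depth and to weakly complementary targets, and k3 was capped at 0.0001 min^-1 after three trials were pooled.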
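Note: 1 nM active piRISC with 0.1 nM target library at 33 °C single turnover.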

Sequence | pre-steady-state target cleavage rate
CUUAAGGAGAGGAUCUACUGGCAUACCUAA | 0.000172 ± 0.03
CUUAAGGAGACCUUCUAGCUGGGUUACCUAA | 0.00168 ± 0.0053
CUUAAGGAGACGAUCUACAGGGUUACCUAA | 0.00225 ± 0.0044
CUUAAGGUCUGGAUCUACUGGGUUCCUAA | 0.00124 ± 0.0069
CUUAUCCUCUGGAUCUACUGGGUUACCAUA | 0.497 ± 0.069
CUUAAGGAGACCUAGUACUGGGUUCCUAA | 0.000141 ± 0.042
CUUAUCCUCUGGAUCUACUGGGAUUCCUAA | 0.103 ± 0.04
CUUAAGGACUCGAUCUUCUGGGUUACCUAA | 0.000382 ± 0.037
CUUAAGGUCUGGAUCUUACUGGGUUACCUAA | 0.00149 ± 0.0043
CUUAAGGAGACCUACUACGGGGUUACCUAA | 0.000812 ± 0.014
GAAUUCCUCUGGAUCUACUGGGUUACCAUAA | 0.383 ± 0.049
CUUAAGGAGACCUUCUACUGGGUUACCUAU [g2:g17:cont:t1U] | 0.00321 ± 0.0042
CUAUUCCUCUGGAUCUCUGGGUUACCUAA | 0.00302 ± 0.0051
CUUAAGGAGACGAUCUUCUGGGAUACCUAA | 0.000809 ± 0.0084
CUUAAGGAGACGAUCUACUGGGAAACCUAA | 0.000136 ± 0.025
CUUAAGGAGACCAUCUACUCGGUUACGUAA | 0.00126 ± 0.0056
GAAUUCCACUGGAUCUACUGCGUUACCUAA | 0.744 ± 0.063
CUUAAGGAGAGGAUCUACUGGGUUGCCUAA | 0.00441 ± 0.005
CAAUUCCUCUGGAUCUAGACGGUUACCUAA | 0.000436 ± 0.014
CUUAAGGAGUGGAUCUAGUGGGUUUCCUAA | 0.000754 ± 0.006
CUUAAGGAGACGAUCUACAGGGUUACCAAA | 0.00169 ± 0.0061
CUUAAGGUCUGGAUCUACUGGCUUAGCUAA | 0.000634 ± 0.019
CUUAAGGAGACCUACUCUGGGUUACCUAA | 0.000857 ± 0.0079
CUUAAGGAGACCUAGAUGUGGGUUACGUAA | 0.000245 ± 0.018

Some values from the list:
Value of CUUAAGGAGACGAUCUUCUGGGAUACCUAA under pre-steady-state target cleavage rate: 0.000809 ± 0.0084
Value of CUUAAGGAGAGGAUCUACUGGCAUACCUAA under pre-steady-state target cleavage rate: 0.000172 ± 0.03
Value of CUAUUCCUCUGGAUCUCUGGGUUACCUAA under pre-steady-state target cleavage rate: 0.00302 ± 0.0051
Value of CUUAAGGAGACCUUCUAGCUGGGUUACCUAA under pre-steady-state target cleavage rate: 0.00168 ± 0.0053

(continued)

Sequence | pre-steady-state target cleavage rate
CUUAUGCUCUGGAUCUACUGGGUUACGUAA | 0.534 ± 0.042
CUUAAGGACUGUGAUCUACUGGGUUACCUAA | 0.00475 ± 0.014
CUUAAGGAGACGAUCUACUGGGUUACCUGA | 0.00244 ± 0.0037
CUUAAGGACUGGAACUACUGCGUUACCUAA | 0.0189 ± 0.021
CUUAAGGACUGGAUCUACUGGGCUUACCUAA | 0.00746 ± 0.012
CUUAAGGAGUGGUCUACUGGGUUACCUAA | 0.00109 ± 0.009
CUUAUCCUCUGGAUCUACUGCGGUUACCUAA | 0.00192 ± 0.0042
CUUAAGGAGACCAUCUUCUGGGUUACCUAA | 0.00215 ± 0.004
CUUAAGGAGACCUAGUACUGGGUUACCAUA [g4:g15:cont:t1A] | 0.000686 ± 0.0091
CUUAAGGAGACCAUCUUCUGGGUUAGCUAA | 0.0013 ± 0.0068
CUUAAGGAGACCUAGAUCUGGUGUUACCUAA | 0.000191 ± 0.048
CUUAAGGAGUGGAUCAACUCGGUUACCUAA | 0.00072 ± 0.016
CUUAUCCUCUCGAUGUACUGGGUUACCUAA | 0.498 ± 0.03
CUUAAGGAGACCUACUACUGGGAUACCUUA | 0.000487 ± 0.02
CUUAAGGAGAGUGAUCUACUGGGUUACCUAA | 0.00223 ± 0.0035
CUUAAGGAGAGGAUCUACAGGGUUACCAAA | 0.000634 ± 0.012
CUUAAGGAGACCUAGAUCUGGGUUACCGAA | 0.000506 ± 0.013
CUUAAGGAGACGAUCUACUGGGUUAUCCUAA | 0.00219 ± 0.0044
CUAUUCCUCUGGAUCUACUCGGGUUACCUAA | 0.00268 ± 0.0051
CUUAAGGAGUCGAUCUACUGGCUUACCUAA | 0.000288 ± 0.031
CUUAAGGAGUGGUUCAACUGGGUUACCUAA | 0.00443 ± 0.0057
CUUAAGGAGACCUAGAUCAUGGGUUACCUAA | 0.000772 ± 0.011
CUUAAGGACUGGAUCUACUCGGAUACCUAA | 0.00159 ± 0.018
CUUAAGGAGUGGAUGUACUCGGUUACCUAA | 0.00249 ± 0.012

Sequence | pre-steady-state target cleavage rate
CUUAAGGUCUGGAUCAACUGGGUUACGUAA | 0.293 ± 0.039
GAAUUCCUCUGGAAGUACUGGGUUACCUAA | 0.511 ± 0.047
CAAUUCCUCUGGAUCUACUGGAGUUACCUAA | 0.00382 ± 0.0035
CUUAACCUCUGGAUCUACUGAGUUACCUAA | 0.646 ± 0.047
CUUAAGGAGACCAUCGACUGGGUUACCUAA | 0.000723 ± 0.0094
CUUUUCCUCUGGAUCUACUGCGUUAGCUAA | 0.142 ± 0.048
CAAUUCCUCUGGAUCUACUGGUGUUACCUAA | 0.0066 ± 0.0037
CUAUUCCUCUGGAUCUACUGGGUUACCUAAA | 0.333 ± 0.047
CUUAAGGAGACCUACUACUGCGUUAGCUAA | 0.000437 ± 0.015
CUUAAGGAGACCUAGUACUGGGUUGCCUAA | 0.00116 ± 0.01
CUUAAGGAGACCUUCUAGUGGGUUAGCUAA | 0.000574 ± 0.015
CUUAAGGAGACCAACUACUGGGUUACCAAA | 0.00134 ± 0.0049
CUUAAGGAGACCUACUACUCCGUUACCUAA | 0.000736 ± 0.0048
CUUAAGGAGACCAUCUUCUGGGUUACCAAA | 0.00215 ± 0.0038
CUUAAGGAGAGGAUCAACUGGGUAACCUAA | 0.00011 ± 0.06
CUUAAGGAGACCUAGAUCCGGGUUACCUAA | 0.0011 ± 0.012
CUUAUCCUCUGGAUCUACUGGGUUACAUAA | 0.742 ± 0.048
CUAUUCCUCUGGAUUCUACUGGGUUACCUAA | 0.346 ± 0.047
CUUAAGGACUGGAUCUACUGGGAUACCAAA | 0.00112 ± 0.021
CUUAAGGAGAGGAUCUACUGCCUUACCUAA | 0.000731 ± 0.011
CUUAAGGAGUGGAUCUACUGGGAUACCAAA | 0.000518 ± 0.014
CUUAAGGAGACGAUCUACUGGGUUCCCUAA | 0.0012 ± 0.0041
CUUAAGGACUGGAACUACUCGGUUACCUAA | 0.0049 ± 0.011
